Reference: article PMC9601964
Where a protein sequence is shown, tags need not be part of it.

Biological target: T1, RihR (XRE-family regulator) (Azorhizobium caulinodans ORS571) (UniProt A8IKA5)
T1 sequence (looked up): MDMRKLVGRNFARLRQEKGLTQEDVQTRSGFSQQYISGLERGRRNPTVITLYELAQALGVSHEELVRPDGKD
Experiment: EMSA
Details: 50 ng DNA, increasing RihR, poly(dI-dC); 50 mM Tris-HCl pH 8.3, 0.25 M KCl, 2.5 mM DTT, 5 mM MgCl2, 0.25 mg/mL BSA, 0.05 mg/mL poly(dI-dC), 2.5 mM EDTA, 1% glycerol; 20 uL, 20 min, room temperature; recombinant protein; residues 1-72; protein details: N-terminal 6xHis (pET28a); probe letters rebuilt from the primers and the genome

ACATCTGGCTCTGCCGAACCCAAAAAAGCAAAAACGCCCCGGAGGGCGTTTGCTCGATATTCAATTTTCGAGAAACTGGAGCGGGCGAAGGGATTCGAACCCTCGACCCCAACCTTGGCAAGGTGCCCGAGAGCCATTCGCCGCAATATCCGATCCTTCGCCGCAGTTGTAAAAAGCAATACAAAGCAGATATTTATATCGTGCGCGCTCCGCCGATCGTCGCCGCCCAGACGCCACGATTTGATTTCGGATGCTTCCATTCGGCTTCCGGAAGCGTTAAAATAGGGAGAATGGAAGCAAATTTCATATAAGCGTTTGGAATAAAATGGAAAAGCTCACAAAGCGCCGTTTGGA (double strand) [intC promoter fragment]
binding result: binds
